# Reference: PubChem BioAssay AID2718 (Broad Institute, 2010)
# The chains behind the UniProt entries cited, without tags or fusion partners.
# UniProt O15379, whole entry, looked up: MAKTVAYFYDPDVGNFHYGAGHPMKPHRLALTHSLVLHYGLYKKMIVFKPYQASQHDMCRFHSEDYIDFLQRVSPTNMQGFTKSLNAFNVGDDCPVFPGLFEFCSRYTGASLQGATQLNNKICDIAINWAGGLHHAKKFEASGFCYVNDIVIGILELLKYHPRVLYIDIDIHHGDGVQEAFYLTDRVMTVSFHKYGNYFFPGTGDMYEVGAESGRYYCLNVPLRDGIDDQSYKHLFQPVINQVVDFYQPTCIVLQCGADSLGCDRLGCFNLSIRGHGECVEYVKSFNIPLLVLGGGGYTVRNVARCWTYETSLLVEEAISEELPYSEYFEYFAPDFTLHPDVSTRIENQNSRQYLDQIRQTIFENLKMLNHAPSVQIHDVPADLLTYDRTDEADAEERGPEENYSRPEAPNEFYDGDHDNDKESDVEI
# Screen size: about 320,000 compounds; about 480 (0.15%) were called active. This list was built around the results that the source calls inconclusive (neither active nor inactive); the mix of calls is not that of the screen. Cut-off read from the data, not from the text of the source: active = inhibition above about 26% (passing the limit was not always enough); inconclusive = no clear call, values can overlap the other calls.
# Target: Histone deacetylase 3 (Homo sapiens) (UniProt O15379)
# Experiment: HDAC3 deacetylase inhibitors, primary screen, biochemical, fluorescence, cell-free homogeneous (AID 2718)
# Settings: recombinant HDAC3, fluorogenic peptide/trypsin coupled, at 8.3 µM, stronger effect = higher value
row,SMILES,inhibition
1,CC(=O)N1CC(=O)N=C1SCC(=O)Nc1nc(C)c(-c2ccccc2)s1,active: 25.8%
2,CCOC(=O)CC(=O)CSc1ncnc2c1nnn2-c1ccc(F)cc1,active: 61.5%
3,O=C(NCCc1ccccc1)c1ccc(CS(=O)(=O)Cc2ccc(F)cc2)o1,inconclusive: 21%
4,Cn1ncc([N+](=O)[O-])c1C(=O)Nc1cccc(Cl)c1,inactive: -10.6%
5,O=C(O)Cc1ccc(NC(=O)Nc2ccc3c(c2)OCO3)cc1,inactive: -5.3%
6,CCOC(=O)C1=C(C)OC2(O)c3ccccc3C(=O)C12O (centres undefined),inactive: 0.846%
7,CN(CC(=O)Nc1ccccc1Cl)C(=O)COC(=O)c1cccs1,inconclusive: 27.3%
8,CCCn1c(SCC(=O)N2CCCc3ccccc32)nnc1-c1ccco1,inconclusive: 21.5%
9,O=C(CCc1ccccc1)Nc1ccc2ccccc2n1,inconclusive: 20.2%
10,CC1CCN(S(=O)(=O)c2ccc3c(ccn3CCC(=O)NC(C)C)c2)CC1,inactive: -3.03%
11,COc1cc(/C=N/NC(=O)c2cccc([N+](=O)[O-])c2)ccc1O,inconclusive: 23%
12,CCOCCCNC(=S)N(CCN(C)C)Cc1cc2cc3c(cc2[nH]c1=O)OCCO3,active: 34.8%
13,C[C@H]1CN([C@@H](C)CO)C(=O)c2cccc(NC(=O)Nc3ccc(C(F)(F)F)cc3)c2O[C@@H]1CN(C)C(=O)Nc1ccc(F)cc1,active: 35.3%
14,COc1ccc(CNC(=O)C(C)Sc2ccc(C)cc2)cc1 (centres undefined),inconclusive: 24.9%
15,Cc1ccccc1N(C(=O)Cc1c[nH]c2ccccc12)C(C(=O)NC1CCCCC1)c1ccco1 (centres undefined),inactive: 1.75%
16,CCCc1cc(C(N)=O)c(NC(=O)c2cc(C)on2)s1,inconclusive: 18.8%
17,CCC(=O)N(CCC(c1ccco1)C(C)C)Cc1ccccc1 (centres undefined),inconclusive: 21.6%
18,CCC(C)(C)NC(=O)/C=C/c1ccc(OC)c(S(=O)(=O)N2CCOCC2)c1,inconclusive: 14.9%
19,CNC(=O)c1c(Br)cnn1-c1ccc(C)cc1,inconclusive: 15.2%
20,Cc1cc(NS(=O)(=O)c2ccc(NC(=O)c3ccco3)cc2)no1,inconclusive: 17.7%
21,O=C(NCc1cccnc1)/C(=C/c1ccc(-c2cccc(C(F)(F)F)c2)o1)NC(=O)c1ccccc1,inconclusive: 23.3%
22,CCOC(=O)NC(=O)CN1C(=O)NC(C)(c2ccccc2)C1=O (centres undefined),inactive: -12.3%
23,O=C(Oc1cccc(N2C(=O)C3C4c5ccccc5C(c5ccccc54)C3C2=O)c1)c1ccco1 (centres undefined),inconclusive: 20.5%

# Shown with tabs: entries from further up
row	SMILES	inhibition
7	CN(CC(=O)Nc1ccccc1Cl)C(=O)COC(=O)c1cccs1	inconclusive: 27.3%
8	CCCn1c(SCC(=O)N2CCCc3ccccc32)nnc1-c1ccco1	inconclusive: 21.5%

# More compounds

row,SMILES,inhibition
1,COC(=O)CN(c1ccc(OCc2ccccc2)cc1)S(C)(=O)=O,inconclusive: 17.4%
2,Cc1cc(/C(=N/O)C(C)(C)NO)ccc1Cl,inconclusive: 18.2%
3,CCCC(=O)n1nc(-c2cccnc2)nc1N,inconclusive: 21.8%
4,CCNC(=S)N/N=C/c1ccccc1[N+](=O)[O-],inconclusive: 16.7%
5,CCOC(=O)C(Sc1cc(C)nc(N)n1)C(C)=O (centres undefined),inconclusive: 16%
6,COC(=O)N/N=C1/C/C(=N\NC(=O)OC)c2ccccc21,inconclusive: 19.6%
7,O=C(O)Cc1ccc(C(=O)c2ccccc2)s1,inconclusive: 16.1%
8,CC(Nc1ccc(Cl)cc1)c1cc(Cl)ccc1O (centres undefined),inactive: 6.57%
9,Cc1cc(=O)[nH]c(SCC(=O)Nc2ccc(Br)cc2)c1C#N,inconclusive: 21.9%
10,CC(C)(C)C(=O)Oc1cc(N)n(S(=O)(=O)c2ccc(F)cc2)n1,inconclusive: 18.8%
11,O=[N+]([O-])c1ccccc1/C=C\C=N\N1CCN(c2ccccc2)CC1,inconclusive: 17%
12,CC(C)/C(C=O)=C(/NC1CCCCC1)c1ccccc1,inconclusive: 29.1%
13,COc1ccc(CCNC(=O)C(=O)N/N=C/c2cccs2)cc1OC,inconclusive: 16%
14,O=C(Nc1ccccc1Cc1ccccc1)c1oc2ccccc2c1COc1ccccc1,inconclusive: 31.5%
15,Cc1cccc(-n2c(-c3ccncc3)n[nH]c2=S)c1,inactive: 8.12%
16,CC(C)(C)OC(=O)C[C@@H]1C/C=C\C[C@@H](CC(=O)N[C@@H](CO)Cc2ccccc2)C(=O)NCCOC1=O,inactive: -6.55%
17,COc1cccc(C(=O)n2ccc(-c3cccs3)n2)c1,inconclusive: 22.4%
18,O=C1CC(c2cccc(F)c2)c2c(c3ccccc3[nH]c2=O)O1 (centres undefined),inconclusive: 15%
19,COc1ccc(N2CCN(C(=O)CNC(=O)c3ccc(Br)o3)CC2)cc1,inconclusive: 19.8%
20,CC(=O)Nc1cccc(N=NN2CCOCC2)c1,inactive: -31%
21,O=C(CNc1cccc2ccccc12)N/N=C/C=C/c1ccco1,inconclusive: 24.8%
22,COc1ccc(NCc2nnc(SCC(=O)Nc3cccc(C)c3)o2)cc1,inconclusive: 26.2%
23,COc1ccccc1N1CCN(CC(=O)Nc2ccc(S(=O)(=O)N3CCCCCC3)cc2)CC1,inactive: -2.27%

row,SMILES,inhibition
1,O=[N+]([O-])c1ccc(S(=O)(=O)N/N=C/c2ccco2)cc1,inconclusive: 23.1%
2,COC(=O)C1CCN(c2nc3ccccc3nc2C(C#N)C(=O)OCC(C)C)CC1 (centres undefined),inactive: 0.37%
3,Cc1ccc(N(CC(=O)Nc2cc(Cl)ccc2Oc2ccccc2)S(C)(=O)=O)cc1C,active: 26.7%
4,CCC(C)(C)c1ccc(OCCCC[n+]2ccc(C)cc2)c(C(C)(C)CC)c1,active: 33.8%
5,COc1cc2nc(-c3ccccc3C)oc(=O)c2cc1OC,inconclusive: 13.1%
6,CS(=O)(=O)n1nc(OC(=O)c2cccs2)cc1N,active: 92.6%
7,Clc1ccc(C2=Nn3c(nnc3-c3n[nH]c4c3CCC4)SC2)cc1,inactive: 0.267%
8,O=C(COc1cccc(C(F)(F)F)c1)Nc1ccc(S(=O)(=O)N2CCCCC2)cc1,inactive: 17.7%
9,CCOCCCn1c(=NC(=O)c2ccco2)c(C(=O)OCC)cc2c(=O)n3cccc(C)c3nc21,inactive: -154%
10,O=C(CSc1nnc(-c2cccnc2)o1)OC1CCCCC1,inconclusive: 26.6%
11,Cc1ccc(Cl)c(OC(=O)Cn2cnc3c2c(=O)n(C)c(=O)n3C)c1,inconclusive: 26.3%
12,COc1cc(-c2nc3cnccn3c2Nc2ccccc2)ccc1O,inactive: 5.56%
13,O=C(CN1C(=O)/C(=C/c2ccco2)SC1=S)Nc1ccc(O)c(C(=O)O)c1,inconclusive: 22.1%
14,O=[N+]([O-])c1cc(C(F)(F)F)ccc1N/N=C/c1cc2ccccc2nc1Cl,inconclusive: 20.5%
15,O=C1C=CC(=O)N1N(c1ccccc1)c1ccccc1,inactive: -1.53%
16,Cc1ccc(NC(=O)C2(S(=O)(=O)c3ccc(Cl)cc3)CC2)cc1,inactive: 2.33%
17,O=[N+]([O-])c1cccc(-c2nc(-c3ccccc3)c(-c3cccs3)[nH]2)c1,inconclusive: 12%
18,Cc1ccc(CNC(=O)/C=C/c2cccs2)cc1,inactive: 1.78%
19,CC(=O)Nc1cccc(NC(=O)CSc2nc(=O)n(CCN3CCOCC3)c3c2CCCC3)c1,inconclusive: 21.6%
20,Cc1ccc2cn[nH]c2c1NC(=S)NC(=O)c1ccccc1,inactive: 0.256%
21,Cc1cc(C)c2nc(N3CCC(C(=O)NCC4CCCO4)CC3)sc2c1 (centres undefined),inconclusive: 23.8%
22,CCOc1ccc(-c2[nH]ncc2Oc2ccccc2OCC)c(O)c1,inconclusive: 21.2%
23,CSc1ncccc1C(=O)NNc1cc(Cl)ccc1Cl,inconclusive: 30.7%

row,SMILES,inhibition
1,CCC/C(O)=C1\C(=O)CC(C)(C)CC1=Nc1cccc([N+](=O)[O-])c1,inconclusive: 15.8%
2,O=C(C1CCCN(c2ncnc3c2nc2n3CCCCC2)C1)N1CCN(c2ccc(F)cc2)CC1 (centres undefined),inconclusive: 16.6%
3,COc1ccc(C2=CC(=O)CC(C)(C)C2)cc1,inconclusive: 15.7%
4,C=CCC[C@@H](Cc1ccc(F)cc1)C(=O)OC[C@H](Cc1c[nH]c2ccccc12)NC(=O)[C@@H](CC=C)CC(=O)NCCO,inconclusive: 25%
5,CC(C)Oc1ccc(C(=O)NC(=S)Nc2ccc(CN3CCOCC3)cc2)cc1,inconclusive: 18.6%
6,Cc1ccccc1NS(=O)(=O)c1ccc2c(c1)NC(=O)CO2,inconclusive: 21.2%
7,C/C(=N/Nc1ncc(C(F)(F)F)cc1Cl)c1ccncc1,inactive: 3.18%
8,COc1ccc(Cl)cc1NC(=O)CSc1nnc(COc2ccccc2)n1N,inconclusive: 23.6%
9,Cc1ccccc1CN1CCCNC1=O,inconclusive: 8.65%
10,O=C(O)c1ccc(NS(=O)(=O)c2ccc(Cl)cc2)cc1,inconclusive: 17.5%
11,O=C(CSc1nc2ccccc2[nH]1)N/N=C/C=C\c1ccccc1[N+](=O)[O-],inconclusive: 23.3%
12,Cc1cccc(C(=O)OCC(=O)c2cccc(Br)c2)c1O,inconclusive: 12.8%
13,O=C(Nc1ccccc1[N+](=O)[O-])C1COc2ccccc2O1 (centres undefined),inactive: -2.49%
14,COc1ccc(OC)c(-n2c(-c3cc(-c4ccco4)[nH]n3)n[nH]c2=S)c1,inconclusive: 17.5%
15,Cc1ccc(NC(=O)C2C(=O)N(CCO)C3(C)CC2c2ccccc2O3)cc1 (centres undefined),inconclusive: 18.6%
16,OCCCn1c(C2CCCN2c2nc(-c3ccc(F)cc3)cs2)nc2cc(Cl)c(Cl)cc21 (centres undefined),inactive: 3.16%
17,COc1cc(/C=N/N=C2/NC(=O)C(c3ccccc3)S2)ccc1O (centres undefined),inconclusive: 15.5%
18,COC(=O)c1ccc(CSc2cc(C)c3ccccc3n2)o1,inconclusive: 15.7%
19,C=C1CCN([C@@H](C)C(=O)NCCCCCC)S(=O)(=O)c2ccccc21,inconclusive: 13.5%
20,CCCn1c(N)[n+](CC(=O)c2ccco2)c2ccccc21,inconclusive: 18.3%

# Gathered by group, the compounds so far with an NH in an aromatic ring
row,SMILES,inhibition
12,CCOCCCNC(=S)N(CCN(C)C)Cc1cc2cc3c(cc2[nH]c1=O)OCCO3,active: 34.8%
15,Cc1ccccc1N(C(=O)Cc1c[nH]c2ccccc12)C(C(=O)NC1CCCCC1)c1ccco1 (centres undefined),inactive: 1.75%
9,Cc1cc(=O)[nH]c(SCC(=O)Nc2ccc(Br)cc2)c1C#N,inconclusive: 21.9%
15,Cc1cccc(-n2c(-c3ccncc3)n[nH]c2=S)c1,inactive: 8.12%
18,O=C1CC(c2cccc(F)c2)c2c(c3ccccc3[nH]c2=O)O1 (centres undefined),inconclusive: 15%
7,Clc1ccc(C2=Nn3c(nnc3-c3n[nH]c4c3CCC4)SC2)cc1,inactive: 0.267%
17,O=[N+]([O-])c1cccc(-c2nc(-c3ccccc3)c(-c3cccs3)[nH]2)c1,inconclusive: 12%
20,Cc1ccc2cn[nH]c2c1NC(=S)NC(=O)c1ccccc1,inactive: 0.256%
22,CCOc1ccc(-c2[nH]ncc2Oc2ccccc2OCC)c(O)c1,inconclusive: 21.2%
4,C=CCC[C@@H](Cc1ccc(F)cc1)C(=O)OC[C@H](Cc1c[nH]c2ccccc12)NC(=O)[C@@H](CC=C)CC(=O)NCCO,inconclusive: 25%
11,O=C(CSc1nc2ccccc2[nH]1)N/N=C/C=C\c1ccccc1[N+](=O)[O-],inconclusive: 23.3%
14,COc1ccc(OC)c(-n2c(-c3cc(-c4ccco4)[nH]n3)n[nH]c2=S)c1,inconclusive: 17.5%
